Results are given in words; binding and its absence hold for the method and conditions named. Binding seen in cells or lysates may run through a third protein. Some binding calls cover weakened binding; strength is not graded here.
Molecular target: signal transducer and activator of transcription 3 (STAT3) (UniProt P40763)
Assay: co-IP; IP assay in cells with or without silencing of RP11-296E3.2; cell line, precipitating antibody and buffer not stated

By UniProt entry, the sequences of proteins in these tests, tags left out.
UniProt P40763: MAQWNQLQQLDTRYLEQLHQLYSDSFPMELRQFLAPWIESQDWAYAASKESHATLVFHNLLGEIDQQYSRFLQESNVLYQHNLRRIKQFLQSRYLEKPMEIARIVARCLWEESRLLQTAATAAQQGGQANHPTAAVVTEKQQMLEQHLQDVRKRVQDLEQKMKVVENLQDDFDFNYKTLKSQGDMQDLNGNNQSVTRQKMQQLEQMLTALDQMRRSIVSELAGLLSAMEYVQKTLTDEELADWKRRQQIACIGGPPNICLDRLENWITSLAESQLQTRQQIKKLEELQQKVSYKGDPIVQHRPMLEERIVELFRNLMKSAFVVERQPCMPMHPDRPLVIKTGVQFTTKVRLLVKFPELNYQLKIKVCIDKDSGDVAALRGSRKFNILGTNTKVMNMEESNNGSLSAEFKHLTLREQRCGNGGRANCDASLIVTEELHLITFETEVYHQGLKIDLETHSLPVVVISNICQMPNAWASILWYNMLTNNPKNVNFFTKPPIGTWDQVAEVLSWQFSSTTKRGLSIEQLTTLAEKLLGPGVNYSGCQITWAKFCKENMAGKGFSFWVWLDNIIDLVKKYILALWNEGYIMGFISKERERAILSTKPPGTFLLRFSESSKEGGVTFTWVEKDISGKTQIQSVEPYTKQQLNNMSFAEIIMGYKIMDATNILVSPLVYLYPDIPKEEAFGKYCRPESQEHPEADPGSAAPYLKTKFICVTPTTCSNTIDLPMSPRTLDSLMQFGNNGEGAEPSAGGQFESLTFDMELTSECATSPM
UniProt P67809: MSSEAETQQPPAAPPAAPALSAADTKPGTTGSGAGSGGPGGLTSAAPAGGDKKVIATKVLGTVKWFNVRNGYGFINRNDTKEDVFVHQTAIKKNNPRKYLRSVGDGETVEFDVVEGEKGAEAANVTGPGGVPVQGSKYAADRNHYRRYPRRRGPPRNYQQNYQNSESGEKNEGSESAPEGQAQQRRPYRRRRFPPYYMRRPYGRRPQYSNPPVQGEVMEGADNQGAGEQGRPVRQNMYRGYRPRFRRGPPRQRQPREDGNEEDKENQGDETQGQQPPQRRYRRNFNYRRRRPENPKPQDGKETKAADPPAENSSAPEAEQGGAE

binding: binds
Substance: Y-Box Binding Protein 1 (YBX1) (from UniProt P67809 1-324)
